Source: PMC4178057
Results are given in words; binding and its absence hold for the method and conditions named. In cells and extracts the contact can be indirect. Some entries that bind do so weakly or less than the wild type. Tags and fused reporters may be left off the sequences shown.

T1: zebrafish Tbx6 tagged with Flag peptide at C terminus (zebrafish) (UniProt Q8JIS6)
T1 sequence: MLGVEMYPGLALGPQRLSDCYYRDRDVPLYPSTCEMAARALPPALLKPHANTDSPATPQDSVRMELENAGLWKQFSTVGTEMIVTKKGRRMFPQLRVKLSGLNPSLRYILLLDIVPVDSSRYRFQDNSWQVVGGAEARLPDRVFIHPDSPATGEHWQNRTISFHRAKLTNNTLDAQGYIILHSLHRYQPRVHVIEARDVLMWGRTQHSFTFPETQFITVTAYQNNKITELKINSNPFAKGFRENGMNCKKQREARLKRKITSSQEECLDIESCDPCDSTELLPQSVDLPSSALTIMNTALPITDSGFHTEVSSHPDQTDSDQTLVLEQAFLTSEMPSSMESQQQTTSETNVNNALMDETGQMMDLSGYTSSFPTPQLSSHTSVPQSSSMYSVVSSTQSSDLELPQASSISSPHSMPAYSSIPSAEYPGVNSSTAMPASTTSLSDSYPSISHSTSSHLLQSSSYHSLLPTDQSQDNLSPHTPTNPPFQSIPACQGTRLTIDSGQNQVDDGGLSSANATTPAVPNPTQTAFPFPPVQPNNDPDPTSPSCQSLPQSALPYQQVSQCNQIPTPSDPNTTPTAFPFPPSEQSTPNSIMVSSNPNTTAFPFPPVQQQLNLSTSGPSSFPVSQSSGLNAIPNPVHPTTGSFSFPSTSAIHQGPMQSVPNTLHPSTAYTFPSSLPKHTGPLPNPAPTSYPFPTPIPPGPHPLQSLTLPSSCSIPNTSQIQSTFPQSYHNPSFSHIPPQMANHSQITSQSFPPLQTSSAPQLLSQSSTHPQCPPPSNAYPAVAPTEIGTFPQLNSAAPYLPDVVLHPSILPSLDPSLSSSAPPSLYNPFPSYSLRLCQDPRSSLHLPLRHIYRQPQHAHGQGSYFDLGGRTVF

T2: mouse Tbx6 tagged with Flag (mouse) (UniProt P70327)
T2 sequence: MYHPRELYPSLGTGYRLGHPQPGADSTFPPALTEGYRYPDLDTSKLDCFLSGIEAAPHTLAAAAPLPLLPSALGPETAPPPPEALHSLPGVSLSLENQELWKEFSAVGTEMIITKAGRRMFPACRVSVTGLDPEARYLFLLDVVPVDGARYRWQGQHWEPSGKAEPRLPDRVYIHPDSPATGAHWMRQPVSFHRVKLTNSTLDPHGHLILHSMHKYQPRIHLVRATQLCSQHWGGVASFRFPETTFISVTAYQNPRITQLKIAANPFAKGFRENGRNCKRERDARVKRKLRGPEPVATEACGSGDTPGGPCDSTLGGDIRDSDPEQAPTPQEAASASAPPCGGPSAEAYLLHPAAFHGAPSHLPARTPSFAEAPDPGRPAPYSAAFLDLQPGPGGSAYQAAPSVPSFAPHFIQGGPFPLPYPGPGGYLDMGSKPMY


Legend:
[1] = target: T1, zebrafish Tbx6 tagged with Flag peptide at C terminus (zebrafish); test: co-IP; 293T cells transfected with ztbx6-Flag and zRipply1-6Myc or zRipply1-mutFPVQ-6Myc; whole cell lysates pre-cleared on Protein G resin 2 hrs at 4°C, precipitated with anti-FLAG M2 resin 3 hrs at 4°C; Western blotting with anti-Myc
[2] = target: T2, mouse Tbx6 tagged with Flag (mouse); test: co-IP; Cos 7 cells transfected with mTbx6-Flag and mRipply2-Myc or mRipply2-mutFPIQ-Myc; whole cell lysates pre-cleared on Protein G resin 2 hrs at 4°C, precipitated with anti-FLAG M2 resin 3 hrs at 4°C; Western blotting with anti-Myc

| binding [1] | Binder | binding [2] |
| --- | --- | --- |
| binds | zebrafish Ripply1 with six Myc tags (protein, UniProt Q2WG80 1-140) MNSVCFATPHTKHMDSKMQLTSSPASLWRPWLVTRKDAQTECRRTKLACPYSRPEVPGNTTTDGKMQSFQHPVRLYWPRSKSFDYLFSDGEALLRNFPVQATINFYDESDSEDEEESCDEDDESDVEDCLKHNSHFTAFN |  |
|  | mouse Ripply2 tagged with Myc (protein, UniProt Q2WG76 1-128) MDTTESAESAHNPARPPSRSRCPPSAQPGSEGFWRPWVRTPGEKEKRTGPRAAEALPSGPGMAEASGKLLQYQHPVRLFWPKSKCYDYLYQEAETLLKNFPIQATISFYEDSDSEDEIEGLACENQSN | binds |
